Experimental data reported in the supplement of paper PMC8728848.
The other results are listed elsewhere or left out.

Target: Neu5Gc(a2-6)GalNAc
Test: glycan array binding signal (z-score within array); higher = stronger binding
Details: glycan notation: IUPAC condensed, linker removed; mutation: H213R,G256S
How it was run: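 Glycan array data came from 3228 arrays in the Consortium for Functional Glycomics database, and only arrays with an available protein sequence were kept. Glycan names were put into IUPAC-condensed notation, and columns mapping to the same glycan were averaged. The binding signal is a within-array Z-score, averaged across arrays of one protein sequence run at different concentrations or buffers and across linkers. A negative Z-score can be read as non-binding.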

B1: CD23 (Homo sapiens) (protein)
chain: MELQVSSGFVCNTCPEKWINFQRKCYYFGKGTKQWVHARYACDDMEGQLVSIHSPEEQDFLTKRASHTGSWIGLRNLDLKGEFIWVDGSHVDYSNWAPGEPTSRSQSEDCVMMRGSGRWNDAFCDRKLGAWVCDRLATCTPPASEGSAESMGPDSRPDPDGRLPTPSAPLHS
- glycan array binding signal (z-score): 0.397
